# Test results published in US6225451.
# Test system: T1, CHD1.ZnF3-8 (CHD1 zinc fingers 3 through 8) (Homo sapiens)
# T1 sequence (limits assumed): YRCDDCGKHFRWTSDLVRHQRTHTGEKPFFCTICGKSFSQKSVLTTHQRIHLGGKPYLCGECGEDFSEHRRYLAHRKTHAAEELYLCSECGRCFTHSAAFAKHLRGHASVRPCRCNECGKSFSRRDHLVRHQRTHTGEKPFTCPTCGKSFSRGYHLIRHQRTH
# Assay: SELEX
# Details: consensus from selection of random oligonucleotides on GST fusion on sepharose; purified recombinant protein; protein details: N-terminal GST (pGEX-4T-3), E. coli BL21; only the motif is given
sequence,measurement,value
GGGGT (double strand) [CHD1 consensus motif],selection result,selected

# The exact form of at least one protein or probe is not confirmed. Protein sequences can lack the tags named with them.
